# Data from the supplement of paper PMC12889115.
# The list shows a part of the results. These are raw signals, not scaled to a control.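 Primary screen: polymyxin B was added at a level permeabilizing Salmonella outer membranes while sparing inner membranes. DMSO wells, both with and without polymyxin B, established maximum growth. Plate-to-plate variation meant each plate was ranked on its own, and the lowest-OD600 compounds were selected as hits.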
# Test system: Salmonella enterica serovar Typhimurium SL1344
# Test: bacterial growth OD600 after 18 h with compound and polymyxin B; higher = more bacterial growth (less inhibition)
# Conditions: 50 µM, Mueller-Hinton broth
Structure (SMILES),bacterial growth OD600 (polymyxin B 1 µg/mL),bacterial growth OD600 (polymyxin B 0.75 µg/mL)
Cc1ccc(Oc2ncccc2CNC(=O)c2ccccn2)c(F)c1F,0.815,–
O=C(NCCc1nc(-c2ccccc2)no1)C1CCC(=O)N(C2CC2)C1 (stereo unspecified),0.839,–
O=C1CCC(C(=O)N2CCN(C3CCCCC3)C(=O)C2)CN1CCc1ccc(Cl)cc1 (stereo unspecified),0.897,–
O=C(NC1CCCN(CC2CCCCC2)C1)c1ccncc1 (stereo unspecified),0.891,–
C=C(C)CNC(=O)CC1C(=O)NCCN1Cc1ccc(F)cc1Cl (stereo unspecified),0.789,–
COc1cc(CN2CCCC(Nc3ccc(F)cc3)C2)ccc1O (stereo unspecified),0.932,–
Cc1ccc(Oc2ncccc2CNC(=O)c2csc(C)n2)cn1,0.972,–
COc1ccc(CN2CCOc3ccc(C(O)Cc4ccccc4)cc3C2)cc1F (stereo unspecified),–,0.005
CSCCC(=O)NC1CC(C)(C)Cc2nc(N3CCC(O)CC3)ncc21 (stereo unspecified),–,0.847
CCC(=O)N(C)C(Cc1ccc(F)cc1F)C1CCN(C(=O)/C=C/c2cc(F)ccc2F)CC1 (stereo unspecified),–,0.51
CCC1CN(CCNC(=O)C(C)c2ccccc2)Cc2cc(OC)ccc2O1 (stereo unspecified),–,0.971
O=C(c1ccccc1)N1CCOC(CCc2ccccc2)C1 (stereo unspecified),–,0.775
CC(=O)N1CCCN(C(=O)c2csc3nc(-c4cc(C)ccc4C)cn23)CC1,–,0.856
CCN(CC)C(=O)C1CCC(=O)N(CCc2cccc(F)c2)C1 (stereo unspecified),0.929,–
CCN(CC)CCNC(=O)c1cc(COc2ccccc2OC)on1,0.907,–
O=C1N(Cc2ccc(F)cc2)CCCC1(O)CN1CCC(CO)CC1 (stereo unspecified),1.06,–
Cc1ccccc1C(NC1CCN(c2ccc(NC(=O)c3ccccc3F)cc2)CC1)c1ccncc1 (stereo unspecified),–,0.003
Fc1ccc(-n2cccn2)c(CNCc2cccnc2N2CCOCC2)c1,0.832,–
O=C1CCN(c2ccc(-c3nc(COc4ccccc4)no3)cn2)CCN1,0.841,–
COC(=O)[C@@H]1CCCN1C(=O)Cc1ccc(N2CCC(NCc3ccsc3)CC2)cc1,–,0.866
COc1ccc(CN2CC[C@@H](N3CCC(O)CC3)[C@H](O)C2)cc1C,1.07,–

# Single entries from the results shown:
# In bacterial growth OD600 (polymyxin B 1 µg/mL), O=C(NCCc1nc(-c2ccccc2)no1)C1CCC(=O)N(C2CC2)C1 (stereo unspecified) reads 0.839
# In bacterial growth OD600 (polymyxin B 1 µg/mL), Fc1ccc(-n2cccn2)c(CNCc2cccnc2N2CCOCC2)c1 reads 0.832
